We go through three substances from PMC10413113.

The chains behind the UniProt entries cited, without tags or fusion partners. Residues count along the entry.
UniProt P59242: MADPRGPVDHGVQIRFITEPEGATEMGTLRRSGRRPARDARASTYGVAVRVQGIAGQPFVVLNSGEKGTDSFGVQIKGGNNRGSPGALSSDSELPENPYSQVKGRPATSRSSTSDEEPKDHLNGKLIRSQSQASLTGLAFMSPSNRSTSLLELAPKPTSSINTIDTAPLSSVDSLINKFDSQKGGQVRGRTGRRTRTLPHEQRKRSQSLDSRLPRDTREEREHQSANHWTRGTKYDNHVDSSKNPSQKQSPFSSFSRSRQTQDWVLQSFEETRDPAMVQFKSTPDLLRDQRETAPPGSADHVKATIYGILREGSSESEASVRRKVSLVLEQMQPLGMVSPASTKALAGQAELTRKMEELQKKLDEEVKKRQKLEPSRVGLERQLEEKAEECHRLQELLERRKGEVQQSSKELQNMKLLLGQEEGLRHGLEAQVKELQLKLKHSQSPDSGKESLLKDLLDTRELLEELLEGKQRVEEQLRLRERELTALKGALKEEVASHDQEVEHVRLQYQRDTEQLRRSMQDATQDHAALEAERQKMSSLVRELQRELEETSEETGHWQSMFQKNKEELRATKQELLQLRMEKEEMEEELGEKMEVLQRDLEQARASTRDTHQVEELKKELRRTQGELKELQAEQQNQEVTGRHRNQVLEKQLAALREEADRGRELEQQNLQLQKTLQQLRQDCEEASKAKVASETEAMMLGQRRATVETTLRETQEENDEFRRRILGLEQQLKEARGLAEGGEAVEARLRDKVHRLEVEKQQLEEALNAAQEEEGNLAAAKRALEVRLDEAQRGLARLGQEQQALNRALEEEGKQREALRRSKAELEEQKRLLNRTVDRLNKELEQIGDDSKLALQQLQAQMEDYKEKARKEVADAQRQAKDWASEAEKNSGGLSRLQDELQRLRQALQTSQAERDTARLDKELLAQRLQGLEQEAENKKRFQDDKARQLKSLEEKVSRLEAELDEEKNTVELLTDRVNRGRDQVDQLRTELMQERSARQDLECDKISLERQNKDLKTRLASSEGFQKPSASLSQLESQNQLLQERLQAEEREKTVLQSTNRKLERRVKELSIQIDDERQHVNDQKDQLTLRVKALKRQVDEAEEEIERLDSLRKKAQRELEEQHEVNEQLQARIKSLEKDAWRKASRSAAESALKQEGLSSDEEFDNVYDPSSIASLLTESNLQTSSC
UniProt Q8R3H7: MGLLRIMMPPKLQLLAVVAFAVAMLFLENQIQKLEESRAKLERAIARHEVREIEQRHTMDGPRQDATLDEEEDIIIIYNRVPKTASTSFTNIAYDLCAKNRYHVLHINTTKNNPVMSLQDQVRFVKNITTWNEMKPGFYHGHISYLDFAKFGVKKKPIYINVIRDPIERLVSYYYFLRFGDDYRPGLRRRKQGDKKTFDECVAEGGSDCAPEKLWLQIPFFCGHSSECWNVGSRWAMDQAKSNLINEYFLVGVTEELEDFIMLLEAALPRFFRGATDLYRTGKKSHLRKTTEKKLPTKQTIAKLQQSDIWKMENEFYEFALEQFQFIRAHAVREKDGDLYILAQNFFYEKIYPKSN
UniProt P58022, residues 26-776: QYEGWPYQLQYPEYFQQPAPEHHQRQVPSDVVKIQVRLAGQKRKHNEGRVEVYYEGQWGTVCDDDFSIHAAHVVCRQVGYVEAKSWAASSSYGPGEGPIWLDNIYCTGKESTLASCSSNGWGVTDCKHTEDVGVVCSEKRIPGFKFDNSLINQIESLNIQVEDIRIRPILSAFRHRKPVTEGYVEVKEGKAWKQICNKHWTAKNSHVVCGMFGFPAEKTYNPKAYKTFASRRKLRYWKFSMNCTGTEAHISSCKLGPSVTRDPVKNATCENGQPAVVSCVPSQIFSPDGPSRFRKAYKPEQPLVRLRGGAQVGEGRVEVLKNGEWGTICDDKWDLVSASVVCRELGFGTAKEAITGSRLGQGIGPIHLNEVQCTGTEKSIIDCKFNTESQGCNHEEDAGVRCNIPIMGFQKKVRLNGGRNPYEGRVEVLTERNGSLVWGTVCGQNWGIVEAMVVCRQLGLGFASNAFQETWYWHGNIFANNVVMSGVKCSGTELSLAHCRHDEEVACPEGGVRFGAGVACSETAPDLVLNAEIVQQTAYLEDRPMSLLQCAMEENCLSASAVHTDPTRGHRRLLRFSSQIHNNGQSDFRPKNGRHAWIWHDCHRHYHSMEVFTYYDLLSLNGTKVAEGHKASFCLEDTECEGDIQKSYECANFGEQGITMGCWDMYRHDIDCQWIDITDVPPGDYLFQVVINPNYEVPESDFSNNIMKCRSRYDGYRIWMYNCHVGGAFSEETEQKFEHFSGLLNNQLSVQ

No constants are given. Whether binding was seen depends on the method and setting. Binding seen in cells or lysates may run through a third protein. These calls come from enrichment with a bait or labelling near it, and not all partners need be listed.

This test concerns the target T1, EVC (endogenous mouse EVC protein) (mouse (endogenous in MEFs)) (UniProt P57680).
T1 sequence: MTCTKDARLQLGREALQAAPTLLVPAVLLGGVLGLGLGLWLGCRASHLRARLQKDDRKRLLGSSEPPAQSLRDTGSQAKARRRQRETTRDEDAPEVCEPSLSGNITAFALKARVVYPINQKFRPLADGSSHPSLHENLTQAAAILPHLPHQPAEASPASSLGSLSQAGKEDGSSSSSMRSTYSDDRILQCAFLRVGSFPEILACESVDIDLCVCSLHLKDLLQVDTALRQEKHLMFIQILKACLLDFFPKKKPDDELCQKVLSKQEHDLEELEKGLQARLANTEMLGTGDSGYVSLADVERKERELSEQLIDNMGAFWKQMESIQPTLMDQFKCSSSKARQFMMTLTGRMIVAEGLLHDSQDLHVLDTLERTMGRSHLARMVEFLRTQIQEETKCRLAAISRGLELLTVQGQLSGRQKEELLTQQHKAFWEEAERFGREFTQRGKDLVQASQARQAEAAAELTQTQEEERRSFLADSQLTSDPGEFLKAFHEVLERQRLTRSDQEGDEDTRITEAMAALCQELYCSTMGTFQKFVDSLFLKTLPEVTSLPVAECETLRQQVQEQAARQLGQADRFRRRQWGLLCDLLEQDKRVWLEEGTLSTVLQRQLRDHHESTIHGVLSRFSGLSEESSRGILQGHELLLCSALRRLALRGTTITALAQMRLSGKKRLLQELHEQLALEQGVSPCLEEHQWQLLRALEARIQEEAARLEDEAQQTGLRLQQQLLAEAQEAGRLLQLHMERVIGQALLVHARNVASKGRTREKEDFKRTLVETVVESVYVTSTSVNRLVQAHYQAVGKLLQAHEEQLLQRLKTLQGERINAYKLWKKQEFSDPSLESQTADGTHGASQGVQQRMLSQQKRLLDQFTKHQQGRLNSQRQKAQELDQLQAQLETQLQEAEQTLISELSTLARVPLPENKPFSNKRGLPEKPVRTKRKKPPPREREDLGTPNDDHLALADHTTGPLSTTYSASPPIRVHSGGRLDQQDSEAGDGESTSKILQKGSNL
The experiment in a line: affinity purification with mass spectrometry; mouse monoclonal anti-EVC on Dynabeads; lysates of serum-starved Evc+/+ MEFs, Evc-/- MEFs as negative control; 1X IP buffer with 25 mM NaCl, overnight at 4°C; LC-ESI-MS/MS; n = 3.
Turning to “Cingulin (CGN) (from UniProt P59242 1-1191)”, the binding entry is on record as “binds”.

Take HS2ST1 (from UniProt Q8R3H7 1-356): the binding result is reported as “binds”.

On to LOXL2 (from UniProt P58022 26-776), for which the binding entry is “binds”.
